Results deposited as PubChem BioAssay AID1671195 (Yale University, 2021)
The deposit covers about 22,000 reagents; shown is a random part of them. Of all reagents, about 1,510 (6.9%) were called active. 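Active includes knockdowns raising or lowering LDL uptake; positive z-scores mean more uptake, negative mean less.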 Reagent sequences are not shown.

Aim: 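Regulators of LDL receptor activity judged by labelled LDL uptake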 (primary screen)
Cell system: human Huh7 hepatoma cells
Reagent: siRNA pool against human genes, 18 nM
Timing: about 2 to 2.5 days of knockdown, then 8 h LDL uptake
Challenge: DiI-labelled LDL at 30 µg/ml for 8 h, in lipoprotein-deficient serum medium
Measurement: 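Fluorescent LDL signal imaged in cells, scaled to the plate median, robust z-score for each replicate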
Reading the numbers: robust z-score: higher = more LDL uptake after knockdown
Rule for the call: 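a gene counts as active if at least two replicate z-scores exceed ±2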

With MAPT, what was measured?
robust z-score, replicate 1: 2.84; robust z-score, replicate 2: 1.54; robust z-score, replicate 3: 0.722; Outcome: inactive

What did the screen give for TMPRSS11D?
robust z-score, replicate 1: 0.0092; robust z-score, replicate 2: -0.402; robust z-score, replicate 3: -0.258; Outcome: inactive

What is on record for GFOD2?
robust z-score, replicate 1: -1.02; robust z-score, replicate 2: -1.13; robust z-score, replicate 3: -0.253; Outcome: inactive

With ZNF430, what does the deposit list?
robust z-score, replicate 1: 0.268; robust z-score, replicate 2: 0.377; robust z-score, replicate 3: 0.445; Outcome: inactive

What is on record for A2M?
robust z-score, replicate 1: -0.0656; robust z-score, replicate 2: 0.274; robust z-score, replicate 3: -0.0277; Outcome: inactive

With LOC388214 (retired record), what was measured?
robust z-score, replicate 1: 0.346; robust z-score, replicate 2: 0.0952; robust z-score, replicate 3: 0.224; Outcome: inactive

How did the screen score GK?
robust z-score, replicate 1: 0.835; robust z-score, replicate 2: 0.696; robust z-score, replicate 3: 1.35; Outcome: inactive

How did the screen score ATP5MC1P5?
robust z-score, replicate 1: 0.323; robust z-score, replicate 2: 0.766; robust z-score, replicate 3: 0.419; Outcome: inactive

For SNW1, what was measured?
robust z-score, replicate 1: -0.934; robust z-score, replicate 2: -0.771; robust z-score, replicate 3: -1.2; Outcome: inactive

With ACTBL2, what was measured?
robust z-score, replicate 1: -0.107; robust z-score, replicate 2: -0.00252; robust z-score, replicate 3: -0.0301; Outcome: inactive

2 of these entries in another layout.
| gene symbol | robust z-score, replicate 1 | robust z-score, replicate 2 | robust z-score, replicate 3 | Outcome |
| --- | --- | --- | --- | --- |
| SNW1 | -0.934 | -0.771 | -1.2 | inactive |
| ACTBL2 | -0.107 | -0.00252 | -0.0301 | inactive |

The list goes on:
How did the screen score NRL?
robust z-score, replicate 1: 0.357; robust z-score, replicate 2: -0.744; robust z-score, replicate 3: -1.38; Outcome: inactive

What did the screen give for TPCN2?
robust z-score, replicate 1: 0.0989; robust z-score, replicate 2: -0.251; robust z-score, replicate 3: 0.0269; Outcome: inactive

How did the screen score RNASE6?
robust z-score, replicate 1: 2.09; robust z-score, replicate 2: 1.68; robust z-score, replicate 3: 1.81; Outcome: inactive

For ERMAP, what does the deposit list?
robust z-score, replicate 1: 1.2; robust z-score, replicate 2: 1.09; robust z-score, replicate 3: 0.308; Outcome: inactive

What is on record for ZCCHC3?
robust z-score, replicate 1: -0.904; robust z-score, replicate 2: -0.405; robust z-score, replicate 3: -0.738; Outcome: inactive

What did the screen give for LOC441069 (retired record)?
robust z-score, replicate 1: 0.665; robust z-score, replicate 2: 1.67; robust z-score, replicate 3: 1.48; Outcome: inactive

For DYSF, how do the results read?
robust z-score, replicate 1: 2.25; robust z-score, replicate 2: 2.64; robust z-score, replicate 3: 1.24; Outcome: active

With TMEM68, what was measured?
robust z-score, replicate 1: -0.409; robust z-score, replicate 2: 0.162; robust z-score, replicate 3: 0.273; Outcome: inactive

What did the screen give for BDKRB1?
robust z-score, replicate 1: -2.13; robust z-score, replicate 2: 0.635; robust z-score, replicate 3: 0.264; Outcome: inactive

What did the screen give for LINC00942?
robust z-score, replicate 1: 2.14; robust z-score, replicate 2: 1.2; robust z-score, replicate 3: 1.29; Outcome: inactive

With RPS10P22, what was measured?
robust z-score, replicate 1: 0.551; robust z-score, replicate 2: -2.43; robust z-score, replicate 3: 0.513; Outcome: inactive

For LOC440683 (retired record), how do the results read?
robust z-score, replicate 1: -0.0605; robust z-score, replicate 2: -0.266; robust z-score, replicate 3: 0.0089; Outcome: inactive

For NAA30, how do the results read?
robust z-score, replicate 1: 1.07; robust z-score, replicate 2: 2.05; robust z-score, replicate 3: 2.28; Outcome: active

What did the screen give for LOC440490 (retired record)?
robust z-score, replicate 1: -0.275; robust z-score, replicate 2: -0.698; robust z-score, replicate 3: -0.286; Outcome: inactive
